Experimental data published in PMC10148886.
Results are given in words; binding and its absence hold for the method and conditions named. For part of these data: In cells and extracts the contact can be indirect. Some entries that bind do so weakly or less than the wild type. For part of these data: Tags and fused reporters may be left off the sequences shown. Blank lines part the entries; values can stand above or below the molecule they belong to.

By UniProt entry, the sequences of proteins in these tests, tags left out.
UniProt Q9ULZ3: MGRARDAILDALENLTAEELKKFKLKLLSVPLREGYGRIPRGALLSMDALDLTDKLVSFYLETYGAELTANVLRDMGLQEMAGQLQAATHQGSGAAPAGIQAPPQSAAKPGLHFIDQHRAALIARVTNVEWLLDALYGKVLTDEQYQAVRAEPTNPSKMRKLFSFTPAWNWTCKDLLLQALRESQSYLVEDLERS

How the values were obtained:
[1] = biological target: FLAG-tagged caspase-1^CARD (released from MBP by TEV protease) (UniProt P29466); test: 100 K MWCO filtration with western blot; ASC specks from 2.5 μM MBP-fused full-length ASC treated with 5 μM rB7 or rOff for 1 h (or no ASC specks), then 1 h with 10 μM MBP-fused FLAG-tagged caspase-1^CARD and TEV protease; retained material blotted; both purified
[2] = biological target: recombinant full-length ASC (ASC specks from TEV-cleaved MBP-fused ASC) (UniProt Q9ULZ3); test: as above
[3] = biological target: recombinant full-length ASC (ASC specks from TEV-cleaved MBP-fused ASC) (UniProt Q9ULZ3); test: sucrose-gradient ultracentrifugation; recombinant ASC specks treated with 5 μM rB7 or rOff for 30 min, then 15 μM MBP-fused caspase-1^CARD-SUMO-FLAG and TEV protease for 1 h; 5-45% sucrose, fourteen fractions, western blot; both purified
[4] = biological target: endogenous ASC (extracellular ASC specks in cell-free supernatants of stimulated THP-1 cells) (human (endogenous in THP-1)) (UniProt Q9ULZ3); test: pull-down; the same experiment as a13, for the two endogenous proteins of the supernatant found together on GST-fused rB7
[5] = biological target: endogenous ASC (extracellular ASC specks in cell-free supernatants of stimulated THP-1 cells) (human (endogenous in THP-1)) (UniProt Q9ULZ3); test: sucrose-gradient ultracentrifugation; cell-free supernatants of LPS/nigericin-stimulated THP-1 cells with 5 μM rB7 or rOff for 1 h; 5-45% sucrose, 167,000×g, 10 min, fourteen fractions, western blot of caspase-1 and ASC
[6] = biological target: T1, caspase-1^CARD-SUMO labelled with DyLight 550 or DyLight 650 (released from MBP by TEV protease), P29466; test: FRET or BRET; MBP-fused caspase-1^CARD-SUMO labelled with DyLight 550 and with DyLight 650 mixed, TEV protease added in the presence of recombinant ASC specks treated with rB7 or rOff; FRET efficiency after 45 min normalised by the initial value; excitation 522 nm, emission 578 and 678 nm; both purified; details: remark: other sources report otherwise
T1 chain: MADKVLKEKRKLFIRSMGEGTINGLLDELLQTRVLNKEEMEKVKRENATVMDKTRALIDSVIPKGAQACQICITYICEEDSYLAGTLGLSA

binding [1]: binds weakly
binding [2]: binds
Molecule: FLAG-tagged caspase-1^CARD (released from MBP by TEV protease) (from UniProt P29466 1-91) (domain or fragment)

binding [3]: binds
Molecule: caspase-1^CARD-SUMO-FLAG (released from MBP by TEV protease) (from UniProt P29466 1-91) (domain or fragment)

binding [4]: binds
binding [5]: binds
Molecule: endogenous caspase-1 species (premature caspase-1 and processed species including p20) in cell-free supernatants of stimulated THP-1 cells (from UniProt P29466 1-404) (enzyme)

binding [6]: binds
B1: caspase-1^CARD-SUMO labelled with DyLight 550 or DyLight 650 (released from MBP by TEV protease), P29466 1-91 (domain or fragment)
chain: MADKVLKEKRKLFIRSMGEGTINGLLDELLQTRVLNKEEMEKVKRENATVMDKTRALIDSVIPKGAQACQICITYICEEDSYLAGTLGLSA
modifications: here or on the partner: DyLight 550 or DyLight 650 maleimide on free cysteine residues; DyLight 550 or DyLight 650 maleimide on free cysteine residues
